According to article PMC10761881:
Results are given in words; binding and its absence hold for the method and conditions named. Binding seen in cells or lysates may run through a third protein. Some results given as binding are weak or reduced against the parent protein; the word gives no strength. Where a sequence is shown, tags or fusion partners need not be part of it.

Sequences of proteins named here, by UniProt entry; tags and fusion partners are left off.
UniProt Q9W2S2: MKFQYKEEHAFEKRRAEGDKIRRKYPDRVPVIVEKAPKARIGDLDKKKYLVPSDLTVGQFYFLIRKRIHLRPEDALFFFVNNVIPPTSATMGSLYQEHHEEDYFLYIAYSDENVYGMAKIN

What was measured:
[1] = target: Atg8a (epitope-tagged) (Drosophila) (UniProt Q9W2S2); assay: co-IP; Drosophila S2R+ cells (S2 cells in the legend of Fig. 4D) transfected with epitope-tagged proteins; treatments in some panels: dsRNA against Slmap, Fgop2 or Cka, co-expression of Tak1 or Tak1 S176A, 5Z-7-Oxozeaenol (2 μM, 3 h), LPS (10 μg/mL, 2 h, after 20-Hydroxyecdysone 1 μM, 48 h)
GST-Fgop2 (Drosophila) = target: T1, GST-Fgop2 (Drosophila) (UniProt Q9VM65); assay: pull-down; bacterially purified GST fusion proteins as bait; lysates of S2R+ cells transfected with HA-tagged Tao-1; only the target purified
T1 sequence: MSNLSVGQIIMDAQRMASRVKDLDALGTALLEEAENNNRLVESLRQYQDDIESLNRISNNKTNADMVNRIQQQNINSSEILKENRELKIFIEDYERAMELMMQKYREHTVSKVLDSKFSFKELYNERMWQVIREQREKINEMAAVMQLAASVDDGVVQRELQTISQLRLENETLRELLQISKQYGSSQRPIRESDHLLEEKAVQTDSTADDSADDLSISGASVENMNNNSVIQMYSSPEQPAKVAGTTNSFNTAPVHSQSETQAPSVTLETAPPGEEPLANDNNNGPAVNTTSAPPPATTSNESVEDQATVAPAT

B1: Tak1 (Transforming growth factor-β-activated kinase 1), epitope-tagged (enzyme, UniProt Q9V3Q6 1-678)
chain: MATASLDALQAAYVDFSEITLREKVGHGSYGVVCKAVWRDKLVAVKEFFASAEQKDIEKEVKQLSRVKHPNIIALHGISSYQQATYLIMEFAEGGSLHNFLHGKVKPAYSLAHAMSWARQCAEGLAYLHAMTPKPLIHRDVKPLNLLLTNKGRNLKICDFGTVADKSTMMTNNRGSAAWMAPEVFEGSKYTEKCDIFSWAIVLWEVLSRKQPFKGIDNAYTIQWKIYKGERPPLLTTCPKRIEDLMTACWKTVPEDRPSMQYIVGVMHEIVKDYTGADKALEYTFVNQQIVTKESDGTVAAQPDSLSSQEGELSPSSTQLTPTTAANANVNAIAISKTTTSSMTENTSSTSSDITPTNSGQLDNNPLFYMVTNRWDAIPEEESNESRNDSFNLTSSAEATQRLETIRNGMILMACKPMEQLTLDVEANGFDLSPSESSSSSTNAKSDGRERLTVTDTKPVMMTTDLSNNNGGIHAHSNGLLSHANGWQARDEELQEQEHEQEIVNSLDVDVDPDEDENDGTEQSLAEILDPELQPEPPIPNDAESQLIYRDHRHMAKEYLSVDTNLYYAQDFKDKLIVQMDRTEREQKQELLRKMKDKEGLQSLYNNLQQQYASRQLAAGHHPQPHPHPHPNQLQHPHSHPPMHFLQDEGCGLLPGSVCGGSESVEEGWVVIPPHHNA
binding [1]: binds

B2: HA-Tao-1 (protein, UniProt Q0KHQ5 1-1039)
chain: MPSARPGSLKDPEIADLFNKHDPEKIFEDLREIGHGSFGAVYYARCNLTREIVAIKKMSYTGKQSQEKWQDILKEIRFLRQLNHPNTIEYKGCYLRESTAWLVMEYCVGSASDIIEVHKKPLHEDEIAAICLGVLSGLSYLHSLGRIHRDIKAGNILLTDNGVVKLADFGSAAIKCPANSFVGTPYWMAPEVILAMDEGQYDGKVDVWSLGITCIELAERKPPYFNMNAMSALYHIAQNESPTLPKNDWSDAFCSFVELCLKKMPAERPSSAKLLTHAYVTRPRSDTVLLELIARTKSAVRELDNLNYRKMKKILMVDTCETESAVGDTDDQQDDHAGGDSSKSNSITSEHSIHSVGVSAASSQSSSSNSIPAAAQNHHHIAAHHHQQAASAAVAAAMHHHHHPHQQPPPSWPSGQQGQPVPPGAVSRNSSRHRNRPPLPNIMHSMNNNVTPTNSASVVPAPAPAPVLPPPISVLPHLSAMGHVGGGGTGTGGSGGGSPASGGPLADRIQPVQPRYLTTPAAQAAVYAASSASSQQAISNAVNDHGPNNFATIRTTSIVTKQQKEHMQEEMHEQMSGYKRMRREHQAHLVKLEEKCKVDMEAHKTALDKEYDTLLHNFTRDLDRLETKHQQDVERRAKQTSAAEKKLHKEITLKQENDRKVYDLNRKKEYKANKERWKRELSMDESTPKRQRDLTLQSQKDNLKQHEAQEEQRMLQAQKQYIELEMRKFKRKRMIMQHEHEDQQLRDELGKKEQQLQQAHAMLLKHHEKTQELEYRQQKSVHQLREEQINKQHDTELHNQKDYMDRIKKELVRKHAVELRQQPKSLKQKELQIRKQFRETCKTQTKQYKRYKAQVLQTTPKEQQKEVIKQLKEEKHRKLTLLGEQYEQSIADMFQSQSYKLDESQVIECQRTHEQLEYELEMLTAYQNKNKKQAQEQRDRERRELENRVSVRRGLLENKMDAELQQFNQERAERLRMKHEKHTKELEAFDNESIALGFSTLSLIEVSREAYADEEGSLSGSMISLAHSNSSTSFPAGSL
binding (GST-Fgop2 (Drosophila)): no binding
